# PubChem BioAssay AID504791 | Drosophila RNAi Screening Center | 2011
# Aim: 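Genes whose knock-down strengthens or weakens small-RNA reporter silencing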 (primary screen)
# Cells: Drosophila S2-derived reporter cells
# Knock-down reagent: long dsRNA against Drosophila genes, about 150-250 ng dsRNA per well (siRNA assay); about 80-120 ng (miRNA assay)
# Duration: about 5 days (siRNA assay); about 4 days (miRNA assay)
# Conditions: copper sulfate induction of reporters: 25 µM (siRNA assay); 200 mM stated (miRNA assay), 1-2 days before reading
# Detection: 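Per-well ratio of Renilla over firefly light, expressed relative to that plate's average ratio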
# Hit rule: 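a well was a first-pass pick when its plate-scaled ratio rose above 1.5 (siRNA assay) or 1.6 (miRNA assay), or dropped below 0.6; a gene counted only if two separate dsRNAs agreed on retest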
# The deposit covers about 23,000 reagents; below is a random part of those with a known target gene and a result. Over the whole deposit, 199 (0.86%) were called active. 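Plate-scaled ratios behind the calls are not deposited; printed light signals are raw; many rows marked increased or decreased are still called inactive.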 The numbers tell different reagents against one gene apart. A plus sign joins genes that one reagent is predicted to hit. The record does not give: the direction of the score.
gene,reagent,stable siRNA reporter change,miRNA reporter change,"stable assay Renilla, run 1 (luminescence)","stable assay firefly, run 1 (luminescence)",outcome
QIL1 (GeneID 39948),1,,,7711,3.38e5,inactive
CG11474 (GeneID 37514),1,,,10619,4.90e5,inactive
CG13998 (GeneID 50423),1,,,8989,5.69e5,inactive
pkaap (GeneID 34957),1,,,6812,3.91e5,inactive
CG7945 + yellow-k,1,,,6511,4.26e5,inactive
CG9864 (GeneID 37287),1,,,5914,2.81e5,inactive
RanGAP (GeneID 35223),1,,,8534,5.32e5,inactive
RanGAP (GeneID 35223),2,,reporter ratio lowered past the hit cutoff,,,inactive
CG32834 (GeneID 318238),1,,,10994,6.13e5,inactive
CG13116 (GeneID 34288),1,,,5816,4.78e5,inactive
CG13116 (GeneID 34288),2,,,8307,5.03e5,inactive
CG14933 + CG42486,1,,,7466,5.00e5,inactive
CG4461 (GeneID 39074),1,,,5610,4.23e5,inactive
psh (GeneID 32832),1,,,5672,4.32e5,inactive
Fis1 (GeneID 49892),1,,,7150,3.90e5,inactive
CG5866 (GeneID 42097),1,,,9262,3.66e5,inactive
CG31064 (GeneID 43277),1,,,6148,4.22e5,inactive
CG31064 (GeneID 43277),2,,,6978,3.93e5,inactive
CG31064 (GeneID 43277),3,,,7260,4.65e5,inactive
CG31064 (GeneID 43277),4,,,8129,4.08e5,inactive
uncNacbeta (GeneID 33232),1,,,7781,5.37e5,inactive
CG1951 (GeneID 43423),1,,,7706,5.46e5,inactive
mRpL9 (GeneID 41859),1,,,5787,3.53e5,inactive
CG9389 (GeneID 40347),1,,,10560,4.07e5,inactive
Tbcd (GeneID 33389),1,,,9295,4.43e5,inactive
CG9701 (GeneID 39872),1,,,10935,4.16e5,inactive
APC4 (GeneID 31835),1,,,7735,4.13e5,inactive
CG32107 (GeneID 317856),1,,,5390,2.84e5,inactive
Art8 (GeneID 34528),1,,,7788,3.62e5,inactive
CG6362 (GeneID 37032),1,,,5040,3.61e5,inactive
CG15546 (GeneID 43659),1,,,5326,3.90e5,inactive
CG15546 (GeneID 43659),2,,,2660,3.44e5,inactive
Acp26Ab (GeneID 33816),1,,,7966,5.05e5,inactive
CG12947 (GeneID 41201),1,,,7607,3.93e5,inactive
Mccc1 (GeneID 43750),1,,,8154,5.28e5,inactive

Reformatted: entries from further up.
{"gene": "CG7945 + yellow-k", "reagent": 1, "stable assay Renilla, run 1 (luminescence)": 6511, "stable assay firefly, run 1 (luminescence)": 4.26e5, "outcome": "inactive"}
{"gene": "CG9864 (GeneID 37287)", "reagent": 1, "stable assay Renilla, run 1 (luminescence)": 5914, "stable assay firefly, run 1 (luminescence)": 2.81e5, "outcome": "inactive"}
{"gene": "RanGAP (GeneID 35223)", "reagent": 1, "stable assay Renilla, run 1 (luminescence)": 8534, "stable assay firefly, run 1 (luminescence)": 5.32e5, "outcome": "inactive"}
{"gene": "RanGAP (GeneID 35223)", "reagent": 2, "miRNA reporter change": "reporter ratio lowered past the hit cutoff", "outcome": "inactive"}
{"gene": "CG32834 (GeneID 318238)", "reagent": 1, "stable assay Renilla, run 1 (luminescence)": 10994, "stable assay firefly, run 1 (luminescence)": 6.13e5, "outcome": "inactive"}
{"gene": "CG13116 (GeneID 34288)", "reagent": 1, "stable assay Renilla, run 1 (luminescence)": 5816, "stable assay firefly, run 1 (luminescence)": 4.78e5, "outcome": "inactive"}
{"gene": "CG13116 (GeneID 34288)", "reagent": 2, "stable assay Renilla, run 1 (luminescence)": 8307, "stable assay firefly, run 1 (luminescence)": 5.03e5, "outcome": "inactive"}
{"gene": "CG14933 + CG42486", "reagent": 1, "stable assay Renilla, run 1 (luminescence)": 7466, "stable assay firefly, run 1 (luminescence)": 5.00e5, "outcome": "inactive"}
{"gene": "CG4461 (GeneID 39074)", "reagent": 1, "stable assay Renilla, run 1 (luminescence)": 5610, "stable assay firefly, run 1 (luminescence)": 4.23e5, "outcome": "inactive"}

The list goes on.
gene,reagent,stable siRNA reporter change,miRNA reporter change,"stable assay Renilla, run 1 (luminescence)","stable assay firefly, run 1 (luminescence)",outcome
CG10752 (GeneID 39467),1,,,8210,3.49e5,inactive
Rfk (GeneID 40936),1,,,8662,5.58e5,inactive
wdb (GeneID 43312),1,,,6928,5.36e5,inactive
CG7255 (GeneID 39662),1,,,9542,3.51e5,inactive
CG9547 (GeneID 33911),1,,,11536,1.40e6,inactive
Upf3 (GeneID 37792),1,,,20775,1.25e6,inactive
Lsd-1 (GeneID 42810),1,,,10047,3.38e5,inactive
CG12448 (GeneID 34942),1,,,6982,3.22e5,inactive
fit (GeneID 42578),1,,,9209,5.16e5,inactive
CG33981 + fab1,1,,,8356,3.52e5,inactive
CG34393 (GeneID 33534),1,,,7375,3.42e5,inactive
CG34393 (GeneID 33534),2,,,7747,3.59e5,inactive
CG18659 (GeneID 35929),1,,,5891,3.11e5,inactive
CG12209 (GeneID 36077),1,,,5548,3.21e5,inactive
Rhau (GeneID 35339),1,,,9411,7.98e5,inactive
CG4151 (GeneID 31465),1,,,5516,3.26e5,inactive
Or98P (GeneID 3772262),1,,,5406,4.87e5,inactive
eIF2Bgamma (GeneID 36722),1,reporter ratio lowered past the hit cutoff,,8594,5.36e5,inactive
par-1 (GeneID 2768852),1,,,5215,3.38e5,inactive
par-1 (GeneID 2768852),2,,,7325,3.97e5,inactive
par-1 (GeneID 2768852),3,reporter ratio raised past the hit cutoff,,31662,5.25e5,inactive
par-1 (GeneID 2768852),4,,,6431,3.73e5,inactive
par-1 (GeneID 2768852),5,,,7050,3.25e5,inactive
Lcp1 (GeneID 35817),1,,,5736,4.26e5,inactive
CG18536 (GeneID 37093),1,,,6404,3.82e5,inactive
Skeletor (retired record) (GeneID 3771796),1,,,6930,3.82e5,inactive
Skeletor (retired record) (GeneID 3771796),2,,,8494,4.02e5,inactive
CG14257 (GeneID 43257),1,,,6574,3.53e5,inactive
mthl11 (GeneID 117467),1,,,5371,4.05e5,inactive
CG12963 (GeneID 36724),1,,,5819,3.30e5,inactive
CG15695 (GeneID 42468),1,,,7199,4.16e5,inactive
moi + Tgs1,1,,,7378,3.29e5,inactive
CG2839 (GeneID 33244),1,,,7362,5.39e5,inactive
Mur2B (GeneID 31111),1,,,7430,3.94e5,inactive
Mur2B (GeneID 31111),2,,,7044,3.32e5,inactive
CG13097 (GeneID 34184),1,,,7099,6.27e5,inactive
Dhc62B (GeneID 38226),1,,,5351,3.59e5,inactive
CG18213 (GeneID 42055),1,,,7318,4.84e5,inactive
CG42450 (GeneID 32874),1,,,5483,3.77e5,inactive
CG42450 (GeneID 32874),2,,,4918,3.66e5,inactive
CG14015 (GeneID 33780),1,,,8295,5.81e5,inactive
CG6023 (GeneID 32814),1,,,7270,3.63e5,inactive
CG8060 (GeneID 36824),1,,,9147,4.27e5,inactive
Sik3 (GeneID 37152),1,,,6242,2.98e5,inactive
Sik3 (GeneID 37152),2,,,9096,3.20e5,inactive
ZnT63C (GeneID 38407),1,,,5363,4.43e5,inactive
ZnT63C (GeneID 38407),2,,,5204,4.98e5,inactive
ZnT63C (GeneID 38407),3,,,8662,4.40e5,inactive
ZnT63C (GeneID 38407),4,,,8996,6.13e5,inactive
